Results reported in publication PMC4342170.

Chains of the proteins cited; added tags and fusions are not shown.
UniProt P40763, whole entry: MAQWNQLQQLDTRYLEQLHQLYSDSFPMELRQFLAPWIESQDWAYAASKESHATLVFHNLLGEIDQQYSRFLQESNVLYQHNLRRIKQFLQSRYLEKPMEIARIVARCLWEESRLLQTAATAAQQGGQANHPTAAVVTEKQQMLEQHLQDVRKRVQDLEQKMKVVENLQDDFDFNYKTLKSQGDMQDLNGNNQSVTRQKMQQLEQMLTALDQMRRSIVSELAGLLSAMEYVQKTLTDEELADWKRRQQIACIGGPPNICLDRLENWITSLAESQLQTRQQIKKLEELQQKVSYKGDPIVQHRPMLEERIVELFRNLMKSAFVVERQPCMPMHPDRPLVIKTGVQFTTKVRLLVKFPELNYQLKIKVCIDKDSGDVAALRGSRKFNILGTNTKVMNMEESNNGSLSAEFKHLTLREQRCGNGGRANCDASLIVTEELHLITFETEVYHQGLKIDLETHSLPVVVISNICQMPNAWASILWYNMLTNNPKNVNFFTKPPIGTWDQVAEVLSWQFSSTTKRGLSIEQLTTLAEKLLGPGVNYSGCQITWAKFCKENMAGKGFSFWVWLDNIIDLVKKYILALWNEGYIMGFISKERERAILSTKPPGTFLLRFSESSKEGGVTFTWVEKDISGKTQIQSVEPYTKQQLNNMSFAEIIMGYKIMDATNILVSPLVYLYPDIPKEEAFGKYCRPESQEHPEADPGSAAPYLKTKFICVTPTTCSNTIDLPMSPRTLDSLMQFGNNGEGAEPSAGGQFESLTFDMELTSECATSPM

Molecular target: STAT3 (Homo sapiens (1.1B4 pancreatic beta cells)) (UniProt P40763)
Experiment: competition with a labelled probe
Conditions: 100x unlabeled M1 against labeled probe 1, IL-6 + Dx nuclear extract; 10 mM HEPES pH 7.8, 50 mM KCl, 5 mM MgCl2, 1 mM EDTA, 10% glycerol, 5 mM DTT, 1 mg/mL BSA, 0.7 mM PMSF, 50 ng/uL poly(dI-dC), room temperature; 4% native acrylamide gel; protein in an extract; label: none (unlabeled competitor)

## AGTGTGCAGTAGGAAAAGGCTCATA (double strand) [probe M1]
  binding result: no binding

The exact form of at least one protein or probe is not confirmed. At least one result comes from cells or an extract, where the contact may be indirect. Negatives hold for the conditions tested.
